# Test results: the supplement of paper PMC9135407
# Where “and” joins values, the source holds several entries; their conditions need not be identical. Equal values may be shown once. Where a name gives a salt, the structure may show the parent alone. ± gives the standard deviation of the averaged measurements. The list shows a part of the results. Part of the spread comes from offsets between plates or batches.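 Assay uses culture-activated primary human stellate myofibroblasts; lipid droplet recovery indicates inactivation. Measured: proportion of Hoechst-counted cells over a plate-specific Bodipy cutoff, duplicate wells, DMSO and nortriptyline as per-plate negative and positive controls. A hit scores, control-normalized, above the plate's top-tenth-percentile nortriptyline wells or ranks among its three best wells. Final well concentrations not reported.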
# Tested on: primary human hepatic stellate cells (donor 1)
# Experiment: percent Bodipy-positive cells; higher = more lipid droplet accumulation
# Details: 48 h
# Method: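 Primary lipid accumulation screen in primary human hepatic stellate cell myofibroblasts (donor 1, passage 8) in 384-well plates. 100 nL of library compound was pin-transferred into 30 µL medium in duplicate, and cells were treated for 48 h. The 'Scaled' score combines distance from plate baseline, toxicity and reproducibility penalties, and is normalised to nortriptyline (positive) and DMSO (negative) controls on each plate. A hit is defined as scaled >0.85 or among the top 3 wells per plate.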
# [1] = library stock concentration: 3.33 mM
# [2] = library stock concentration: 1 mM
# [3] = library stock concentration: 10 mM
smiles,measurement,setting,value
CNCc1ccc(C)c(NC(=O)c2ccc(Nc3nc(-c4ccccc4)c4ccccc4n3)cc2)c1,percent Bodipy-positive cells,[1],98.63 ± 0.54%
CCCCCCC=CCCCCCCCCCCOC(C)=O [11-cis Vaccenyl Acetate],percent Bodipy-positive cells,[2],15.7 ± 10%
N[C@@H](Cc1cc(I)c(Oc2cc(I)c(O)c(I)c2)c(I)c1)C(=O)O [L-Thyroxine],percent Bodipy-positive cells,[1],9.31 ± 3.4%
same,percent Bodipy-positive cells,[3],16.8 ± 12%
N[C@@H](Cc1cc(I)c(Oc2cc(I)c(O)c(I)c2)c(I)c1)C(=O)O [Levothyroxine],percent Bodipy-positive cells,library stock concentration: 2.6 mM,10.7 ± 3.6%
N[C@@H](Cc1cc(I)c(Oc2cc(I)c(O)c(I)c2)c(I)c1)C(=O)O,percent Bodipy-positive cells,[3],25.6 ± 1.3%
CC1(C)CCC(C)(C)c2cc(NC(=O)c3ccc(C(=O)O)cc3)ccc21 [Tamibarotene],percent Bodipy-positive cells,[1],8.9 ± 3.1%
same,percent Bodipy-positive cells,[3],29 ± 10%
CCCCC1C(=O)CCC2C(CC=CCCCC(=O)O)C(=O)CC12 (centres undefined) [Bicyclo Prostaglandin E2],percent Bodipy-positive cells,[2],16.7 ± 4.5%
O=C(CCC/C=C\C[C@@H]1[C@@H](/C=C/[C@@H](O)CCc2ccccc2)[C@H](O)C[C@@H]1O)NC(CO)CO [17-phenyl trinor Prostaglandin F2.alpha. serinol amide],percent Bodipy-positive cells,[2],18.2 ± 3.2%
O=C(O)C(O)Cc1ccc(O)c(O)c1 (centres undefined) [Sodium Danshensu],percent Bodipy-positive cells,[1],13.3 ± 3.2%
same,percent Bodipy-positive cells,[3],10.6 ± 4.1%
C[n+]1cc2c3c(ccc2c2ccc4cc5c(cc4c21)OCO5)OCO3 [Sanguinarine sulfate],percent Bodipy-positive cells,library stock concentration: 4.7 mM,97.65 ± 0.96%
same,percent Bodipy-positive cells,[3],100%
C[n+]1cc2c3c(ccc2c2ccc4cc5c(cc4c21)OCO5)OCO3 [Sanguinarine chloride],percent Bodipy-positive cells,[3],87.3 ± 3.8%
Cc1cc(/C=C2/SC(=S)NC2=O)c(C)n1-c1cccnc1 [Optovin],percent Bodipy-positive cells,[1],34.6 ± 10%
same,percent Bodipy-positive cells,[3],31.1 ± 4.3%
Cc1cc(C)c(Nc2ccnc(Nc3ccc(C#N)cc3)n2)c(C)c1 [Dapivirine (TMC120)],percent Bodipy-positive cells,[1],33.8 ± 5.2%
CCN(CC)CCCCCCCCOC(=O)c1cc(OC)c(OC)c(OC)c1.Cl [TMB-8 hydrochloride],percent Bodipy-positive cells,[3],93.1 ± 1.7%
CC(C(O)c1ccc(O)cc1)N1CCC(Cc2ccccc2)CC1.CC(C(O)c1ccc(O)cc1)N1CCC(Cc2ccccc2)CC1.O=C(O)C(O)C(O)C(=O)O (centres undefined) [Ifenprodil tartrate],percent Bodipy-positive cells,[3],94.5 ± 0.62%
O=C(Nc1cccc(Nc2nccc(Nc3cccc(C(F)(F)F)c3)n2)c1)C1CC1 [Aurora Kinase Inhibitor III],percent Bodipy-positive cells,[1],10.3 ± 5%
Nc1ncnc2c1ncn2[C@@H]1O[C@H](CO)[C@@H](O)[C@H]1O [Adenosine],percent Bodipy-positive cells,[1],17.5 ± 6.5%
same,percent Bodipy-positive cells,library stock concentration: 7.5 mM,1.5 ± 0.57%
Clc1ccc(CSC(Cn2ccnc2)c2ccc(Cl)cc2Cl)cc1 (centres undefined) [Sulconazole Nitrate],percent Bodipy-positive cells,[1],15.3 ± 12%
same,percent Bodipy-positive cells,[3],90.947 ± 0.053%
Clc1ccc(CSC(Cn2ccnc2)c2ccc(Cl)cc2Cl)cc1 (centres undefined) [Sulconazole nitrate],percent Bodipy-positive cells,,17.2 ± 2.5%
same,percent Bodipy-positive cells,[3],72.5 ± 8.8%
O=C(c1ccc(Nc2nccc(-c3cc4ccccc4s3)n2)cc1)N1CCC(N2CCCC2)CC1,percent Bodipy-positive cells,[3],94.1 ± 8.3%
O=C(c1ccc(Nc2nccc(-c3cc4ccccc4s3)n2)cc1)N1CCC(N2CCCC2)CC1 [IKK-16 (IKK Inhibitor VII)],percent Bodipy-positive cells,[3],100%
CCN1CCC(n2cc(CNc3cc(Cl)c4ncc(C#N)c(Nc5ccc(F)c(Cl)c5)c4c3)nn2)CC1,percent Bodipy-positive cells,[3],99.88 ± 0.18%
O=C(/C=C/c1ccccc1)NC(NC(=S)Nc1cccc2cccnc12)C(Cl)(Cl)Cl (centres undefined) [Salubrinal],percent Bodipy-positive cells,[1],11.6 ± 4.6%
same,percent Bodipy-positive cells,[3],24.7% and 6.22%
CC(=O)O[C@@]12CO[C@@H]1C[C@H](O)[C@@]1(C)C(=O)[C@H](O)C3=C(C)[C@@H](OC(=O)[C@H](O)[C@@H](NC(=O)OC(C)(C)C)c4ccccc4)C[C@@](O)([C@@H](OC(=O)c4ccccc4)[C@H]21)C3(C)C [Docetaxel],percent Bodipy-positive cells,[1],9.9 ± 2.3%
same,percent Bodipy-positive cells,[3],8.34 ± 0.11%
CC(=O)O[C@@]12CO[C@@H]1C[C@H](O)[C@@]1(C)C(=O)[C@H](O)C3=C(C)[C@@H](OC(=O)[C@H](O)[C@@H](NC(=O)OC(C)(C)C)c4ccccc4)C[C@@](O)([C@@H](OC(=O)c4ccccc4)[C@H]21)C3(C)C,percent Bodipy-positive cells,[3],7.44 ± 3.4%
CCCCCCCCCCCCCCCCCC(=O)OCC [Stearic Acid ethyl ester],percent Bodipy-positive cells,[2],9.48 ± 6.4%
COc1ccccc1N1CCN(CCN(C(=O)C2CCCCC2)c2ccccn2)CC1,percent Bodipy-positive cells,[1],9.01 ± 6.9%
same,percent Bodipy-positive cells,[3],18.9% and 31%
CN1C(=O)CC(c2ccccc2)C1=O (centres undefined),percent Bodipy-positive cells,[3],30 ± 9%
CN1C(=O)CC(c2ccccc2)C1=O (centres undefined) [Phensuximide],percent Bodipy-positive cells,,6.28 ± 0.49%
Nc1ccn([C@@H]2O[C@H](CO)[C@@H](O)C2(F)F)c(=O)n1 [Gemcitabine hydrochloride],percent Bodipy-positive cells,[3],55.6 ± 5.7%
Nc1ccn([C@@H]2O[C@H](CO)[C@@H](O)C2(F)F)c(=O)n1 [Gemcitabine HCl],percent Bodipy-positive cells,library stock concentration: 7.6 mM,17.3 ± 8%
Nc1ccn([C@@H]2O[C@H](CO)[C@@H](O)C2(F)F)c(=O)n1 [Gemcitabine],percent Bodipy-positive cells,[1],22.7 ± 6.3%
same,percent Bodipy-positive cells,[3],38.7 ± 3.7%
CC(O)C(=O)O.N (centres undefined),percent Bodipy-positive cells,[3],20.4 ± 3.3%
Fc1ccc(Cl)cc1-c1nc(Nc2ccncc2)c2nccnc2n1,percent Bodipy-positive cells,[3],6.14 ± 1.8%
CO[C@H]1C[C@@H]2CC[C@@H](C)[C@@](O)(O2)C(=O)C(=O)N2CCCC[C@H]2C(=O)O[C@H]([C@H](C)C[C@@H]2CC[C@@H](OCCO)[C@H](OC)C2)CC(=O)[C@H](C)/C=C(\C)[C@@H](O)[C@@H](OC)C(=O)[C@H](C)C[C@H](C)/C=C/C=C/C=C/1C,percent Bodipy-positive cells,library stock concentration: 80 uM,7.76 ± 0.58%
same,percent Bodipy-positive cells,library stock concentration: 400 uM,14 ± 6.8%
same,percent Bodipy-positive cells,library stock concentration: 2 mM,7.71 ± 3.4%
same,percent Bodipy-positive cells,[3],19.5 ± 4%
CO[C@H]1C[C@@H]2CC[C@@H](C)[C@@](O)(O2)C(=O)C(=O)N2CCCC[C@H]2C(=O)O[C@H]([C@H](C)C[C@@H]2CC[C@@H](OCCO)[C@H](OC)C2)CC(=O)[C@H](C)/C=C(\C)[C@@H](O)[C@@H](OC)C(=O)[C@H](C)C[C@H](C)/C=C/C=C/C=C/1C [Everolimus (RAD001)],percent Bodipy-positive cells,[1],4.79 ± 3.9%
same,percent Bodipy-positive cells,[3],17 ± 6.9%
CN(C)CCN(Cc1ccccc1)c1ccccn1 [Tripelennamine citrate],percent Bodipy-positive cells,library stock concentration: 4.5 mM,28.9 ± 8.6%
CN(C)CCN(Cc1ccccc1)c1ccccn1 [Tripelennamine HCl],percent Bodipy-positive cells,[1],15.4 ± 4.3%
same,percent Bodipy-positive cells,[3],67.2 ± 2.8%
CN(C)CCN(Cc1ccccc1)c1ccccn1,percent Bodipy-positive cells,[3],35.6 ± 5.5%
CC1CNc2c(cccc2S(=O)(=O)N[C@@H](CCCNC(=N)N)C(=O)N2CC[C@@H](C)C[C@@H]2C(=O)O)C1 (some centres undefined) [Argatroban],percent Bodipy-positive cells,[1],5.39 ± 0.84%
same,percent Bodipy-positive cells,[3],22.4 ± 18%
C=CC1=C(C)c2cc3[nH]c(cc4nc(cc5[nH]c(cc1n2)c(C)c5CCC(=O)O)C(CCC(=O)O)=C4C)c(C)c3C=C [Protoporphyrin ix],percent Bodipy-positive cells,[3],14.2 ± 2.4%

# Rewritten with tabs: entries from further up
smiles	measurement	setting	value
O=C(Nc1cccc(Nc2nccc(Nc3cccc(C(F)(F)F)c3)n2)c1)C1CC1 [Aurora Kinase Inhibitor III]	percent Bodipy-positive cells	[1]	10.3 ± 5%
Nc1ncnc2c1ncn2[C@@H]1O[C@H](CO)[C@@H](O)[C@H]1O [Adenosine]	percent Bodipy-positive cells	[1]	17.5 ± 6.5%
